Earlier results as cited in patent publication US20110135634A1, “METHODS OF INHIBITING INFECTION BY DIVERSE SUBTYPES OF DRUG-RESISTANT HIV-1” (priority 2007, published 2011).
At least one compound was matched to its structure with a doubt left.

System: HIV-1
Conditions: dose-dependent, treatment period of 10-14 days; cited from earlier work

## Cc1nnc(C(C)C)n1C1CC2CCC(C1)N2CC[C@H](NC(=O)C1CCC(F)(F)CC1)c1ccccc1 (stereo partly shown) [UK-427,857, reference compound]
  mean reductions in HIV-1 RNA levels: ~1 log10
